# Assay results published in PubChem BioAssay (Tox21).
# Chains of the proteins cited; added tags and fusions are not shown.
# UniProt P28223, whole entry, looked up: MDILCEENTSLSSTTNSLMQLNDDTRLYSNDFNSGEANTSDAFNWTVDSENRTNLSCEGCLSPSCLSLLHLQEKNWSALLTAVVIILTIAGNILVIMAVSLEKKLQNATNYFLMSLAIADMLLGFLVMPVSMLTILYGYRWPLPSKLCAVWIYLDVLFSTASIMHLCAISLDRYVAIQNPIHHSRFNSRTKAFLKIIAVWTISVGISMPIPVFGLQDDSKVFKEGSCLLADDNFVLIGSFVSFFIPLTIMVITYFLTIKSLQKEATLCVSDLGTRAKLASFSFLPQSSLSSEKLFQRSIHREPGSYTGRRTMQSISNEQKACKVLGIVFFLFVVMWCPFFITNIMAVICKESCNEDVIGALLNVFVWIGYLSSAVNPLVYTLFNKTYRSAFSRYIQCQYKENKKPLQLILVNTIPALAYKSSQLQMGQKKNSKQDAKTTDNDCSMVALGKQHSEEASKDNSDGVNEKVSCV
# UniProt P14416, whole entry, looked up: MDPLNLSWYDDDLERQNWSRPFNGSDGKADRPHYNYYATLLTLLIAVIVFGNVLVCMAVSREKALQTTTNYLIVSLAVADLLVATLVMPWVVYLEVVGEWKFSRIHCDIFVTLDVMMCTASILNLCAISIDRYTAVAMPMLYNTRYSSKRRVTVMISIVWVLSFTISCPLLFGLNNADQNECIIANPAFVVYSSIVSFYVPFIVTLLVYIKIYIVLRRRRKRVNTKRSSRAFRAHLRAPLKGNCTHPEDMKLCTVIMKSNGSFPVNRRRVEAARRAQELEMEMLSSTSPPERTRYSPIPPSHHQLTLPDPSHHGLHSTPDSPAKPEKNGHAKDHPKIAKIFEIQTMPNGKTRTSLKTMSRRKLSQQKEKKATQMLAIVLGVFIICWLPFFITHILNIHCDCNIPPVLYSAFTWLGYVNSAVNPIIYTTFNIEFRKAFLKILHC
# Several values for one entry are separate records, joined by “and”; a condition that tells them apart may be missing. Equal entries are not always repeated. This list was built around the results that the source calls inconclusive (neither active nor inactive); the mix of calls is not that of the screen. For some assays here: Potencies of inconclusive entries are doubtful fits and often do not repeat. Activity calls are given as the source filed them. Unless noted, calls come from the whole dose curve.
# What was measured:
# [1] = target: 5-hydroxytryptamine receptor 2A (Homo sapiens) (UniProt P28223); assay: 5-hydroxytryptamine receptor 2A (HTR2A) small molecule antagonists, cell-based qHTS assay (AID 1963586); details: HTR2A-CHO cells, DOI-induced calcium flux, fluorescence; series mostly up to 61.5 µM; note: nearly all actives have a fitted effect of over 45% in size; note: potency is the fitted concentration of half-maximal effect
# Outline: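 Antagonist-mode intracellular calcium assay: DOI (4 nM) added after 5 min compound pre-incubation at room temperature to dye-loaded HTR2A-CHO cells. Fluorescence followed for 3 min, sampled every second.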
# [2] = target: Beta-2 adrenergic receptor (Homo sapiens) (UniProt P07550); assay: Adrenergic beta2 receptor (ADRB2) small molecule agonists, cell-based qHTS assay (AID 1963593); details: CHO-ADRB2 cells, cAMP HTRF, 30 min; note: potency is the fitted concentration of half-maximal effect;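 for activation: CHO cells stably overexpressing human ADRB2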
# Outline: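 CHO cells stably over-expressing ADRB2 were plated overnight at 37C, then dosed with compounds plus a stimulation mix containing 100uM IBMX and 25uM Ro-20-1724 for 0.5hr at room temperature. cAMP was measured by HTRF competition, 1hr.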
# [3] = target: D(2) dopamine receptor (Homo sapiens) (UniProt P14416); assay: Dopamine D2 receptor (DRD2) small molecule agonists, cell-based qHTS assay (AID 1963594); details: HEK293-DRD2 cAMP HTRF, agonist mode, 30 min; activation: at 92.4 µM (top of the series) unless noted; note: nearly all actives have a fitted effect of over 35% in size; note: potency is the fitted concentration of half-maximal effect
# Outline: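 HEK293 cells stably expressing human DRD2, pre-treated with PDE inhibitor Ro20-1724 (0.1 mM final) and compound 10 min at room temperature, then stimulated with NKH477 (200nM […]) for 30 min. cAMP read by HTRF (665/620 nm).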
# [4] = target: D(2) dopamine receptor (Homo sapiens) (UniProt P14416); assay: Dopamine D2 receptor (DRD2) small molecule antagonists, cell-based qHTS assay (AID 1963595; active = well fitted inhibition curve with a large enough effect in the signal ratio in the repeat runs, with a control signal flat; inconclusive = weak or mixed curves, or effect the other way; the % refers to the signal ratio); details: HEK293-DRD2 cAMP HTRF antagonist mode; activity change, negative = inhibition: at 92.4 µM (top of the series) unless noted
# Outline: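 DRD2-HEK293; 0.1 mM Ro20-1724; cpd 10 min RT; NKH477 200 nM + quinpirole 12 nM, 30 min RT; HTRF cAMP (cAMP-d2/anti-cAMP cryptate), 665/620 nm ratio after 1 h.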
# [5] = activation: at 92.4 µM (top of the series) unless noted
# % is set by controls: 0 for no effect and ±100 for the full control effect.
compound,measurement,setting,value
C=CCOC(=O)c1ccc(C(=O)OCC=C)c(C(=O)OCC=C)c1,Potency,[1],active: 33.4 µM
same,Potency,[2]; [5],inactive
CCCCCCCCCCCCc1ccccc1,Potency,[1],inactive
same,activation,[2]; [5],inconclusive: 2.58%
same,activation,[2]; at 92.4 µM (top of the series),inactive: 2.12%
O=NO,Potency,[1],inactive
same,Potency,[2]; [5],"inconclusive: 27.2 µM [inhibitor, single point]"
same,activation,[2]; [5],inconclusive: -44.7% and inconclusive: 12.4%
COC=O,Potency,[1],active: 3.09 µM
same,activation,[2]; [5],inconclusive: 14.3% [at 8.39 µM]
NCCCN1CCOCC1,Potency,[1],"inconclusive: 47.2 µM [inhibitor, partial curve, poor fit]"
same,activation,[2]; [5],inconclusive: 2.43%
Nc1ncnc2nc[nH]c12,Potency,[1],"inactive and inconclusive: 818 nM [inhibitor, single point]"
same,activation,[2]; [5],inconclusive: 7.43%
same,activation,[2]; at 42.5 µM (top of the series),inactive: -7.17%
Cc1cc2c(cc1S(N)(=O)=O)S(=O)(=O)CCC2,Potency,[1],"inconclusive: 20.5 µM [inhibitor, partial curve, poor fit]"
same,Potency,[2]; [5],"inconclusive: 7.5 µM [inhibitor, single point]"
CC(C)(C)CC(=O)OCC(=O)[C@@]1(O)CC[C@H]2[C@@H]3CCC4=CC(=O)C=C[C@]4(C)[C@H]3[C@@H](O)C[C@@]21C,Potency,[1],"inconclusive: 0.326 µM [inhibitor, full curve, poor fit]"
same,activation,[2]; [5],inconclusive: -35.1% [at 42.5 µM]
same,Potency,[3],"inconclusive: 42.2 µM [falling, partial curve, poor fit]"
c1ccc2nccnc2c1,Potency,[1],inactive
same,Potency,[2]; [5],"inconclusive: 0.0063 µM [inhibitor, full curve, poor fit]"
O=C(O)CN(CCN(CC(=O)O)CC(=O)O)CCN(CC(=O)O)CC(=O)O,"activity, negative = inhibition",[1],inactive: 10.6% [at 12.7 µM]
same,activation,[2]; [5],inconclusive: 3.33% [at 19 µM]
CC(=O)N[C@@H](CCC(N)=O)C(=O)O,Potency,[1],"inconclusive: 5.16 µM [inhibitor, single point]"
same,Potency,[2]; [5],"inconclusive: 0.596 µM [inhibitor, full curve, poor fit]"
same,Potency,[3],"inconclusive: 33.5 µM [rising, single point]"
O=C(Nc1ccc([N+](=O)[O-])cc1)Nc1ccc([N+](=O)[O-])cc1,Potency,[1],inconclusive: 0.0001 µM [inhibitor]
same,activation,[2]; [5],inconclusive: -15% [at 42.5 µM]
O=C(CO)[C@@H](O)[C@H](O)[C@H](O)CO,Potency,[1],"inconclusive: 0.377 µM [inhibitor, single point]"
same,Potency,[2]; [5],"inconclusive: 0.388 µM [inhibitor, partial curve, poor fit]"
C[C@H]1C[C@H]2[C@@H]3CCC4=CC(=O)C=C[C@]4(C)[C@H]3C(=O)C[C@]2(C)[C@@]1(O)C(=O)CO,Potency,[1],inactive
same,activation,[2]; [5],inconclusive: 3.88% [at 42.5 µM]
O=Cc1cc2ccccc2o1,Potency,[1],inactive
same,Potency,[2]; [5],inactive
CCOCCOCCO,Potency,[1],"inconclusive: 0.0153 µM [inhibitor, full curve, poor fit]"
same,Potency,[2]; [5],"inconclusive: 1.93 µM [inhibitor, full curve, poor fit]"
same,activation,[2]; [5],inconclusive: 0.413%
CCCCCCCCC,Potency,[1],inactive
same,activation,[2]; [5],inconclusive: 4.29% and inconclusive: 0.0159%
C[n+]1ccn(CCO)c1,Potency,[1],"inconclusive: 4.73 µM [inhibitor, partial curve, poor fit]"
same,Potency,[2]; [5],"inconclusive: 2.44 µM [inhibitor, single point] and inconclusive: 559 nM [inhibitor, full curve, poor fit]"
[O-]/[N+](=N\O)c1ccccc1,Potency,[1],"inconclusive: 0.148 µM [inhibitor, single point]"
same,activation,[2]; [5],inconclusive: -1.87% and inconclusive: -3.83%
CN1Cc2c(N)cccc2C(c2ccccc2)C1 (stereo not drawn),Potency,[1],"active: 14.9 µM and inconclusive: 14.5 µM [inhibitor, partial curve]"
same,activation,[2]; [5],inconclusive: -35.3% [at 42.5 µM]
same,activation,[2]; at 92.4 µM (top of the series),inactive: 4.75%
same,activation,[3],inconclusive: 22.5%
N[C@@H](Cc1c[nH]c2ccc(O)cc12)C(=O)O,Potency,[1],active: 364 nM and active: 6.5 µM
same,activation,[2]; at 42.5 µM (top of the series),inconclusive: -26.8%
same,activation,[2]; at 92.4 µM (top of the series),inconclusive: -20.5%
same,Potency,[3],inconclusive: 31.6 µM
same,"activity change, negative = inhibition",[4],inconclusive: -1.28% [at 42.5 µM]

# For convenience, part of the list above.
compound,measurement,setting,value
c1ccc2nccnc2c1,Potency,[2]; [5],"inconclusive: 0.0063 µM [inhibitor, full curve, poor fit]"
O=C(O)CN(CCN(CC(=O)O)CC(=O)O)CCN(CC(=O)O)CC(=O)O,"activity, negative = inhibition",[1],inactive: 10.6% [at 12.7 µM]
same,activation,[2]; [5],inconclusive: 3.33% [at 19 µM]
CC(=O)N[C@@H](CCC(N)=O)C(=O)O,Potency,[1],"inconclusive: 5.16 µM [inhibitor, single point]"
